Results are given in words; binding and its absence hold for the method and conditions named. For some assays here: In cells and extracts the contact can be indirect. Some results given as binding are weak or reduced against the parent protein; the word gives no strength. For some assays here: Sequences can lack the tags named with a protein. Values belong to the binder of their own block, whether it stands above or below them.
How the values were obtained:
[1] = biological target: T1, necdin (mouse (endogenous in E14.5 forebrain)) (UniProt P25233); assay: co-IP; lysates of E14.5 mouse forebrain (1 mg) incubated with guinea pig anti-necdin antibody GN1 (1:100), pelleted with Protein A-Sepharose, western blotting; controls: preimmune IgG, necdin-null extracts
T1 sequence: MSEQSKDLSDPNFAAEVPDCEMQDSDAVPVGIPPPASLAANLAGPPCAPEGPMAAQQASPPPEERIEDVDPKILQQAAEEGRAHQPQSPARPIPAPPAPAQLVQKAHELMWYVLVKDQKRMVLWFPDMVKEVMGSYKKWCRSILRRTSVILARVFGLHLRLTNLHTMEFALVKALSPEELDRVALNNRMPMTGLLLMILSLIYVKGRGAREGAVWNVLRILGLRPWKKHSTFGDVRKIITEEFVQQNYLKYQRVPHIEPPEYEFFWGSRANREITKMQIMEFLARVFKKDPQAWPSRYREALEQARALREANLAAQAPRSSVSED

[2] = biological target: T2, necdin (expressed in transfected HEK293A cells) (not stated (human or mouse cDNA cloned)) (UniProt P25233); assay: co-IP; HEK293A cells transfected with expression vectors, collected after 24 h; lysates (200 μg) incubated with antibodies at 4 °C for 2 h, Protein A-Sepharose, western blotting
T2 sequence: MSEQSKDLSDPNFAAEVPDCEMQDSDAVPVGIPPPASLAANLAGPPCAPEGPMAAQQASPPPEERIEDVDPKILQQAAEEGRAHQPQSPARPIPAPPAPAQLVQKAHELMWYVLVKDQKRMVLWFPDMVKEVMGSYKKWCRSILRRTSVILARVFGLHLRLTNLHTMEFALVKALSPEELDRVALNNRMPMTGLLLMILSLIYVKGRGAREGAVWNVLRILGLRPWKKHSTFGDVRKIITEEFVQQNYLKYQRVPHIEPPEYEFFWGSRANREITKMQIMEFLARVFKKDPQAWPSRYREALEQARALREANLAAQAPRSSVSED

[3] = biological target: T3, 6Myc-tagged PGC-1α deletion mutant, amino acids 1-200 (N-terminal) (mouse) (UniProt O70343); assay: as above
T3 sequence: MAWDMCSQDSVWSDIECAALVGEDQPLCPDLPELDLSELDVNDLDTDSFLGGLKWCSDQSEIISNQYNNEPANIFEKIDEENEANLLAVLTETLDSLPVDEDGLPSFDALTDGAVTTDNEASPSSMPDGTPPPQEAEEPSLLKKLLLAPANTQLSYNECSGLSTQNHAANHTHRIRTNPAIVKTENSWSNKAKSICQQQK

[4] = biological target: T4, PGC-1α, full-length mouse (expressed in transfected HEK293A cells) (mouse) (UniProt O70343); assay: as above
T4 sequence: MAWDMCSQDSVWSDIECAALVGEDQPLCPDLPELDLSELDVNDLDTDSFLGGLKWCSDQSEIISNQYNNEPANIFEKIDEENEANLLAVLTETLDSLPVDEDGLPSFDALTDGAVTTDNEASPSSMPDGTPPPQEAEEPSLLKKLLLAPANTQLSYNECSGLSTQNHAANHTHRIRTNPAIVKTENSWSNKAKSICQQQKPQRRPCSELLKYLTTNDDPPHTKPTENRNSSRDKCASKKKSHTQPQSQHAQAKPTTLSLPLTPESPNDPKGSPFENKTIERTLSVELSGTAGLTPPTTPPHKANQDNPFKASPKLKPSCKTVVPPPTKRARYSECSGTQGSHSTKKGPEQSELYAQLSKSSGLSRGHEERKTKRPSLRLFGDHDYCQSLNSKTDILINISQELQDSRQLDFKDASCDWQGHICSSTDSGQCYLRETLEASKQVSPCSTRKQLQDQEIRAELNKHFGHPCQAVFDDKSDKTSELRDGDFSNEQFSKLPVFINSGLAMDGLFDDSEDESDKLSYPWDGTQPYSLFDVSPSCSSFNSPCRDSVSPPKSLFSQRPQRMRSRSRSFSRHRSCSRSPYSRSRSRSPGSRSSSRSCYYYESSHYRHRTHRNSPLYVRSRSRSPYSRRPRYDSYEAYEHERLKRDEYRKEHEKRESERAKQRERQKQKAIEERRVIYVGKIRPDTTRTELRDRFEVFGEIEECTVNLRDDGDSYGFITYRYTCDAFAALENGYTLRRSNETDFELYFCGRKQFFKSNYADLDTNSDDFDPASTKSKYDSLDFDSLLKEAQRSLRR

[5] = biological target: T5, MBP-fused PGC-1α deletion mutant, amino acids 1-200 (N-terminal) (mouse) (UniProt O70343); assay: pull-down; MBP-fused PGC-1α deletion mutants on amylose resin incubated with His-tagged necdin (200 ng) at 4 °C for 30 min in 20 mM Tris-HCl pH 7.5, 200 mM NaCl, 1 mM EDTA; eluted with 20 mM maltose, blotted with anti-necdin antibody; both purified
T5 sequence: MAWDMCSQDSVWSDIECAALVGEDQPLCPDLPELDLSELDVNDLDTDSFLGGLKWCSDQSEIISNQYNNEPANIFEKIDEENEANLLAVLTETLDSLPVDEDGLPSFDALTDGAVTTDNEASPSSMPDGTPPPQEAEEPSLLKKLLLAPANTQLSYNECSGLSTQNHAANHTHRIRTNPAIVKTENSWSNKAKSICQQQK

binding [2]: binds
B2: PGC-1α, full-length mouse (expressed in transfected HEK293A cells) (protein, UniProt O70343 1-797)
chain: MAWDMCSQDSVWSDIECAALVGEDQPLCPDLPELDLSELDVNDLDTDSFLGGLKWCSDQSEIISNQYNNEPANIFEKIDEENEANLLAVLTETLDSLPVDEDGLPSFDALTDGAVTTDNEASPSSMPDGTPPPQEAEEPSLLKKLLLAPANTQLSYNECSGLSTQNHAANHTHRIRTNPAIVKTENSWSNKAKSICQQQKPQRRPCSELLKYLTTNDDPPHTKPTENRNSSRDKCASKKKSHTQPQSQHAQAKPTTLSLPLTPESPNDPKGSPFENKTIERTLSVELSGTAGLTPPTTPPHKANQDNPFKASPKLKPSCKTVVPPPTKRARYSECSGTQGSHSTKKGPEQSELYAQLSKSSGLSRGHEERKTKRPSLRLFGDHDYCQSLNSKTDILINISQELQDSRQLDFKDASCDWQGHICSSTDSGQCYLRETLEASKQVSPCSTRKQLQDQEIRAELNKHFGHPCQAVFDDKSDKTSELRDGDFSNEQFSKLPVFINSGLAMDGLFDDSEDESDKLSYPWDGTQPYSLFDVSPSCSSFNSPCRDSVSPPKSLFSQRPQRMRSRSRSFSRHRSCSRSPYSRSRSRSPGSRSSSRSCYYYESSHYRHRTHRNSPLYVRSRSRSPYSRRPRYDSYEAYEHERLKRDEYRKEHEKRESERAKQRERQKQKAIEERRVIYVGKIRPDTTRTELRDRFEVFGEIEECTVNLRDDGDSYGFITYRYTCDAFAALENGYTLRRSNETDFELYFCGRKQFFKSNYADLDTNSDDFDPASTKSKYDSLDFDSLLKEAQRSLRR

binding [3]: binds
binding [4]: binds
B3: necdin (expressed in transfected HEK293A cells) (protein, UniProt P25233 1-325)
chain: MSEQSKDLSDPNFAAEVPDCEMQDSDAVPVGIPPPASLAANLAGPPCAPEGPMAAQQASPPPEERIEDVDPKILQQAAEEGRAHQPQSPARPIPAPPAPAQLVQKAHELMWYVLVKDQKRMVLWFPDMVKEVMGSYKKWCRSILRRTSVILARVFGLHLRLTNLHTMEFALVKALSPEELDRVALNNRMPMTGLLLMILSLIYVKGRGAREGAVWNVLRILGLRPWKKHSTFGDVRKIITEEFVQQNYLKYQRVPHIEPPEYEFFWGSRANREITKMQIMEFLARVFKKDPQAWPSRYREALEQARALREANLAAQAPRSSVSED

Further lines, the binder ahead of its results:

B1: PGC-1α (peroxisome proliferator-activated receptor γ coactivator-1α) (protein, UniProt O70343 1-797)
chain: MAWDMCSQDSVWSDIECAALVGEDQPLCPDLPELDLSELDVNDLDTDSFLGGLKWCSDQSEIISNQYNNEPANIFEKIDEENEANLLAVLTETLDSLPVDEDGLPSFDALTDGAVTTDNEASPSSMPDGTPPPQEAEEPSLLKKLLLAPANTQLSYNECSGLSTQNHAANHTHRIRTNPAIVKTENSWSNKAKSICQQQKPQRRPCSELLKYLTTNDDPPHTKPTENRNSSRDKCASKKKSHTQPQSQHAQAKPTTLSLPLTPESPNDPKGSPFENKTIERTLSVELSGTAGLTPPTTPPHKANQDNPFKASPKLKPSCKTVVPPPTKRARYSECSGTQGSHSTKKGPEQSELYAQLSKSSGLSRGHEERKTKRPSLRLFGDHDYCQSLNSKTDILINISQELQDSRQLDFKDASCDWQGHICSSTDSGQCYLRETLEASKQVSPCSTRKQLQDQEIRAELNKHFGHPCQAVFDDKSDKTSELRDGDFSNEQFSKLPVFINSGLAMDGLFDDSEDESDKLSYPWDGTQPYSLFDVSPSCSSFNSPCRDSVSPPKSLFSQRPQRMRSRSRSFSRHRSCSRSPYSRSRSRSPGSRSSSRSCYYYESSHYRHRTHRNSPLYVRSRSRSPYSRRPRYDSYEAYEHERLKRDEYRKEHEKRESERAKQRERQKQKAIEERRVIYVGKIRPDTTRTELRDRFEVFGEIEECTVNLRDDGDSYGFITYRYTCDAFAALENGYTLRRSNETDFELYFCGRKQFFKSNYADLDTNSDDFDPASTKSKYDSLDFDSLLKEAQRSLRR
binding [1]: binds

B4: His-tagged necdin (protein, UniProt P25233 1-325)
chain: MSEQSKDLSDPNFAAEVPDCEMQDSDAVPVGIPPPASLAANLAGPPCAPEGPMAAQQASPPPEERIEDVDPKILQQAAEEGRAHQPQSPARPIPAPPAPAQLVQKAHELMWYVLVKDQKRMVLWFPDMVKEVMGSYKKWCRSILRRTSVILARVFGLHLRLTNLHTMEFALVKALSPEELDRVALNNRMPMTGLLLMILSLIYVKGRGAREGAVWNVLRILGLRPWKKHSTFGDVRKIITEEFVQQNYLKYQRVPHIEPPEYEFFWGSRANREITKMQIMEFLARVFKKDPQAWPSRYREALEQARALREANLAAQAPRSSVSED
binding [5]: binds
